Source: PubChem BioAssay AID1745857 (National Center for Advancing Translational Sciences (NCATS), 2022)
About 370 (0.31%) of roughly 120,000 compounds were called active. A call without a number means that no potency is given here. Only results without a clear call are listed here; the source files them as inconclusive. Calls follow the shape of the full dose curve. Some tests of the compounds listed are not included; inactive here does not mean inactive elsewhere.
Potency is read from the fitted curve at half-maximal effect.

Experiment: Primary qHTS Assay for Foot and Mouth Disease Virus Antivirals against NCGC Sytravon and CBC Compound Libraries: Renilla Luciferase Signal; as to potency: nearly all actives have a fitted effect of over 55% in size
Settings: FMDV replicon cells
For `CN(C)CCOC(=O)C(O)(c1ccccc1)C1CCCCC1` (configuration not stated), the Potency was “inconclusive”.
With `O=C(CCC1CCCCC1)N1CCN(C/C=C/c2ccccc2)CC1` the Potency was inconclusive: 39.8 µM.
